According to patent US20250283871A1, “COMPOSITIONS AND METHODS FOR MODULATING THE INTERACTION BETWEEN SS18-SSX FUSION ONCOPROTEIN AND NUCLEOSOMES” (Dana-Farber Cancer Institute, Inc., priority 2020, published 2025):

Test system: BAF complex subunits and histone proteins
Experiment: Mass spectrometry proteomics of purified HA-SS18 WT and HA-SS18-SSX1 complexes (Tables 5A-5E)
Design: species or system human
Settings: for Total / Unique: HA-SS18SSX1_CHR_peptides; for Total: total peptides of the identified protein; for Unique: unique peptides of the identified protein
[1] = HA-SS18SSX1_CHR_peptides: protein identified in the HA-SS18-SSX1 purification from solubilized chromatin (CHR), HEK-293T
[2] = HA-SS18SSX1 purification, NE (soluble nuclear extract) fraction, HEK-293T, peptides per identified protein
[3] = HA-SS18WT_CHR_peptides: HA-SS18 WT purification from nuclease-treated solubilized chromatin (CHR), HEK-293T, label = protein identified
[4] = HA-SS18WT_NE_peptides: HA-SS18 WT complexes purified from nuclear extract (NE), HEK-293T, label = protein identified (Gene Symbol)
[5] = HA-SS18WT_CHR_peptides: protein identified in HA-SS18 WT BAF complex purification from nuclease-treated solubilized chromatin (CHR), HEK-293T
[6] = HA-SS18SSX1_NE_peptides: protein co-purified with HA-SS18-SSX1 BAF complexes from soluble nuclear extract (NE), HEK-293T cells
[7] = HA-SS18SSX1_NE_peptides (Table 5B), HA-SS18-SSX1 BAF complex purification from soluble nuclear extract, HEK-293T
[8] = HA-SS18WT_NE_peptides: proteins co-purified with HA-SS18 WT from nuclear extract (NE), HEK-293T
[9] = HA-SS18SSX1_CHR_peptides: proteins found in HA-SS18-SSX1 BAF complex purification from solubilized chromatin (CHR), HEK-293T

PRKDC
Total (total peptides) [1]: 17
Unique (unique peptides) [1]: 17
Total (total peptides) [2]: 89
Unique (unique peptides) [2]: 78
Total (peptides) [3]: 13
Unique (peptides) [3]: 13
Total (peptides) [4]: 98
Unique (peptides) [4]: 83

PRPF8
Total (total peptides) [1]: 42
Unique (unique peptides) [1]: 38
Total (total peptides) [2]: 14
Unique (unique peptides) [2]: 14
Total (peptides) [3]: 31
Unique (peptides) [3]: 28
Total (peptides) [4]: 21
Unique (peptides) [4]: 21

PTBP1
Total: 2
Unique: 2
Total (total peptides) [5]: 1
Unique (unique peptides) [5]: 1

PWP1
Total (peptides) [3]: 3
Unique (peptides) [3]: 2

RAB1A
Total (peptides) [6]: 1
Unique (peptides) [6]: 1

RAD50
Total (peptides) [7]: 1
Unique (peptides) [7]: 1

RAI1
Total (total peptides) [1]: 9
Unique (unique peptides) [1]: 9
Total (total peptides) [5]: 1
Unique (unique peptides) [5]: 1

RANBP2
Total (total peptides) [1]: 5
Unique (unique peptides) [1]: 5
Total (total peptides) [2]: 3
Unique (unique peptides) [2]: 3
Total (peptides) [3]: 6
Unique (peptides) [3]: 6
Total (peptides) [8]: 2
Unique (peptides) [8]: 2

RBBP6
Total (peptides) [9]: 1
Unique (peptides) [9]: 1

RBFA
Total (peptides) [8]: 1
Unique (peptides) [8]: 1

RBM25
Total: 4
Unique: 4
Total (total peptides) [2]: 5
Unique (unique peptides) [2]: 5
Total (peptides) [3]: 4
Unique (peptides) [3]: 4
Total (peptides) [4]: 4
Unique (peptides) [4]: 4

REV3L
Total (peptides) [9]: 1
Unique (peptides) [9]: 1
Total (peptides) [8]: 1
Unique (peptides) [8]: 1

RFC2
Total: 1
Unique: 1
Total (total peptides) [2]: 6
Unique (unique peptides) [2]: 5
Total (peptides) [4]: 4
Unique (peptides) [4]: 3

RFC3
Total (total peptides) [2]: 5
Unique (unique peptides) [2]: 3
Total (peptides) [4]: 3
Unique (peptides) [4]: 2

RFC4
Total: 1
Unique: 1
Total (total peptides) [2]: 4
Unique (unique peptides) [2]: 4
Total (peptides) [4]: 3
Unique (peptides) [4]: 3

RFC5
Total (total peptides) [2]: 3
Unique (unique peptides) [2]: 3
Total (peptides) [8]: 2
Unique (peptides) [8]: 2

RHOT1
Total (total peptides) [2]: 5
Unique (unique peptides) [2]: 5
Total (peptides) [8]: 2
Unique (peptides) [8]: 2

RIF1
Total: 2
Unique: 2
Total (total peptides) [2]: 3
Unique (unique peptides) [2]: 3
Total (peptides) [4]: 5
Unique (peptides) [4]: 5

RLF
Total (total peptides) [1]: 7
Unique (unique peptides) [1]: 7
Total (total peptides) [5]: 1
Unique (unique peptides) [5]: 1

SAFB2
Total (peptides) [9]: 1
Unique (peptides) [9]: 1

SAG
Total (total peptides) [5]: 1
Unique (unique peptides) [5]: 1

SAMHD1
Total (peptides) [6]: 1
Unique (peptides) [6]: 1

SCFD1
Total (peptides) [7]: 1
Unique (peptides) [7]: 1

SDHA
Total (peptides) [8]: 2
Unique (peptides) [8]: 2

SEC61A1
Total (peptides) [6]: 2
Unique (peptides) [6]: 2
Total (peptides) [8]: 2
Unique (peptides) [8]: 2

SENP3
Total: 2
Unique: 2
Total (peptides) [6]: 1
Unique (peptides) [6]: 1
Total (total peptides) [5]: 2
Unique (unique peptides) [5]: 2

SETD2
Total (peptides) [7]: 1
Unique (peptides) [7]: 1

SLC7A1
Total (peptides) [6]: 2
Unique (peptides) [6]: 2
Total (peptides) [8]: 2
Unique (peptides) [8]: 2

SLC7A3 [listing 1 of 2 here]
Total (peptides) [6]: 1
Unique (peptides) [6]: 1

SLC7A3 [listing 2 of 2 here]
Total (peptides) [8]: 1
Unique (peptides) [8]: 1

SLC7A5
Total (peptides) [6]: 3
Unique (peptides) [6]: 2
Total (peptides) [8]: 2
Unique (peptides) [8]: 2

SLC25A1
Total (total peptides) [2]: 6
Unique (unique peptides) [2]: 5
Total (peptides) [4]: 7
Unique (peptides) [4]: 7

SMARCA2
Total (total peptides) [1]: 490
Unique (unique peptides) [1]: 84
Total (total peptides) [2]: 221
Unique (unique peptides) [2]: 60
Total (peptides) [3]: 128
Unique (peptides) [3]: 46
Total (peptides) [4]: 536
Unique (peptides) [4]: 86

SMARCA5
Total (peptides) [6]: 1
Unique (peptides) [6]: 1

SNRNP70
Total: 2
Unique: 2

SNRNP200
Total (total peptides) [1]: 44
Unique (unique peptides) [1]: 42
Total (total peptides) [2]: 24
Unique (unique peptides) [2]: 24
Total (peptides) [3]: 30
Unique (peptides) [3]: 29
Total (peptides) [4]: 34
Unique (peptides) [4]: 34

SON
Total (total peptides) [1]: 11
Unique (unique peptides) [1]: 10
Total (peptides) [3]: 11
Unique (peptides) [3]: 10

SPEN
Total (total peptides) [1]: 26
Unique (unique peptides) [1]: 24
Total (peptides) [3]: 10
Unique (peptides) [3]: 9

SPTLC1
Total (total peptides) [2]: 4
Unique (unique peptides) [2]: 4
Total (peptides) [4]: 4
Unique (peptides) [4]: 4

SPTLC2
Total (peptides) [6]: 2
Unique (peptides) [6]: 2
Total (peptides) [4]: 3
Unique (peptides) [4]: 3

SRSF1
Total (total peptides) [1]: 25
Unique (unique peptides) [1]: 11
Total (peptides) [3]: 10
Unique (peptides) [3]: 7

SRSF3
Total (total peptides) [1]: 5
Unique (unique peptides) [1]: 2
Total (peptides) [6]: 2
Unique (peptides) [6]: 2
Total (total peptides) [5]: 3
Unique (unique peptides) [5]: 2

SSRP1
Total (total peptides) [1]: 26
Unique (unique peptides) [1]: 19
Total (total peptides) [2]: 5
Unique (unique peptides) [2]: 5
Total (peptides) [3]: 15
Unique (peptides) [3]: 13
Total (peptides) [8]: 1
Unique (peptides) [8]: 1

SSX1
Total (total peptides) [1]: 60
Unique (unique peptides) [1]: 4
Total (total peptides) [2]: 10
Unique (unique peptides) [2]: 4

STAG1
Total (total peptides) [1]: 5
Unique (unique peptides) [1]: 5
Total (total peptides) [5]: 2
Unique (unique peptides) [5]: 2

SUCLG1
Total (total peptides) [2]: 3
Unique (unique peptides) [2]: 3
Total (peptides) [4]: 6
Unique (peptides) [4]: 5

SUN1
Total (total peptides) [1]: 5
Unique (unique peptides) [1]: 5
Total (total peptides) [5]: 1
Unique (unique peptides) [5]: 1

SUN2
Total (total peptides) [1]: 8
Unique (unique peptides) [1]: 8
Total (total peptides) [2]: 4
Unique (unique peptides) [2]: 4
Total (peptides) [8]: 1
Unique (peptides) [8]: 1

SUPT16H
Total (total peptides) [1]: 28
Unique (unique peptides) [1]: 26
Total (total peptides) [2]: 4
Unique (unique peptides) [2]: 4
Total (peptides) [3]: 21
Unique (peptides) [3]: 20

SUZ12
Total: 2
Unique: 2

SYNE2
Total (total peptides) [1]: 7
Unique (unique peptides) [1]: 7
Total (peptides) [3]: 4
Unique (peptides) [3]: 4

TADA1 [listing 1 of 2 here]
Total (peptides) [6]: 1
Unique (peptides) [6]: 1

TADA1 [listing 2 of 2 here]
Total (peptides) [8]: 1
Unique (peptides) [8]: 1

TAF5L
Total (peptides) [8]: 1
Unique (peptides) [8]: 1

TAF6L
Total (peptides) [6]: 2
Unique (peptides) [6]: 2
Total (peptides) [8]: 1
Unique (peptides) [8]: 1

TAF10
Total (peptides) [7]: 1
Unique (peptides) [7]: 1

TAF15
Total: 1
Unique: 1
Total (peptides) [8]: 1
Unique (peptides) [8]: 1

TARDBP [listing 1 of 2 here]
Total (peptides) [6]: 1
Unique (peptides) [6]: 1

TARDBP [listing 2 of 2 here]
Total (peptides) [9]: 1
Unique (peptides) [9]: 1
Total (total peptides) [5]: 1
Unique (unique peptides) [5]: 1

TCF20
Total: 2
Unique: 2
Total (peptides) [3]: 3
Unique (peptides) [3]: 3

TCP1
Total (peptides) [6]: 2
Unique (peptides) [6]: 2
Total (peptides) [8]: 1
Unique (peptides) [8]: 1

TECR
Total (peptides) [9]: 1
Unique (peptides) [9]: 1
Total (total peptides) [2]: 3
Unique (unique peptides) [2]: 3
Total (peptides) [4]: 3
Unique (peptides) [4]: 3

THOC2
Total (peptides) [6]: 1
Unique (peptides) [6]: 1

TIMM17B [listing 1 of 2 here]
Total (peptides) [6]: 1
Unique (peptides) [6]: 1

TIMM17B [listing 2 of 2 here]
Total (peptides) [8]: 1
Unique (peptides) [8]: 1

TIMM50
Total: 3
Unique: 3
Total (total peptides) [2]: 4
Unique (unique peptides) [2]: 4
Total (total peptides) [5]: 1
Unique (unique peptides) [5]: 1
Total (peptides) [4]: 7
Unique (peptides) [4]: 6

TJP1
Total: 1
Unique: 1

TM9SF1
Total (peptides) [6]: 2
Unique (peptides) [6]: 2

TM9SF2
Total (peptides) [6]: 2
Unique (peptides) [6]: 2
Total (peptides) [4]: 2
Unique (peptides) [4]: 2

TOMM7 (MVKLSKEAKQRLQQLFKGSQFAIRWGFIPLVIYLGFKRGADPGMPEPTVLSLLWG; UniProt Q9P0U1 1-55, looked up)
Total (peptides) [8]: 1
Unique (peptides) [8]: 1
